One data set deals with APP^dp1-6 neurons. Kind of data set: cell viability of APP^dp1-6 iPSC-derived neurons.
The subject of data set [1] is pThr231Tau/tTau. The experiment in a line: pThr231Tau/tTau ratio (ELISA) in APP^dp iPSC-derived FAD neurons. Format: cell-based, human. To be noted: APP^dp1-6 neurons, 5 μM, 5 days.
Data set [2] deals with pThr231Tau/tTau. Kind of data set: pThr231Tau/tTau in APP-Δcholesterol neurons. Format: cell-based, human. The following applies: 10 μM, 3 days. From the text: FIGS. 4A-4F show regulation of Aβ by CE Is Mediated by a Cholesterol Binding Domain in APP. […] Green indicates amino acid sequence. Red arrow indicates CRISPR/Cas9 cut site. […] Two E693A (line 3D9 and 2B2) and one F691A+E693A line (line D12) were generated, as well as two non-gene-edited, but clonally expanded, WT lines (B10 and B11). FIGS. 4D-4F show measurements made using APP-Δcholesterol neurons with the following genotypes: WT (average from 2 independent lines), E693A (2 independent lines), and F691A+E693A (1 line) (mean±SEM, n R 3 per line). (D) Relative secreted Ab42 levels in conditioned media from purified CD184^−, CD44^−, and CD24^+ neurons (mean±SEM, n≥3 per line).

Here are results for two compounds from patent publication US12427155B2, “Treatment for tau-related diseases” (The Regents of the University of California, priority 2019, dated 2025).

In the case of mevalonate [MVA], the “rescue of the effect of atorvastatin on cell viability” value in the data set with APP^dp1-6 neurons is “without rescuing”.

As for `CC(C)c1c(C(=O)Nc2ccccc2)c(-c2ccccc2)c(-c2ccc(F)cc2)n1CC[C@@H](O)C[C@@H](O)CC(=O)O` [atorvastatin], the “pThr231Tau/tTau, confirmed non-toxic screening hit” value in the data set with pThr231Tau/tTau [1] is reported as “hit-list”. Moreover, the pT231Tau/tTau ratio result with pThr231Tau/tTau [2] is listed as “still decreased”.
